Experimental data from the supplement of paper PMC10849652.
The other results are listed elsewhere or left out. Residues, ends and D or L forms follow the SMILES beside them. *: point of attachment. Cbz = O=C(OCc1ccccc1)*

By UniProt entry, the sequences of proteins in these tests, tags left out. Where a name states a change or a piece, a line headed by the entry shows the natural chain unless it says otherwise.
UniProt Q9BZK7: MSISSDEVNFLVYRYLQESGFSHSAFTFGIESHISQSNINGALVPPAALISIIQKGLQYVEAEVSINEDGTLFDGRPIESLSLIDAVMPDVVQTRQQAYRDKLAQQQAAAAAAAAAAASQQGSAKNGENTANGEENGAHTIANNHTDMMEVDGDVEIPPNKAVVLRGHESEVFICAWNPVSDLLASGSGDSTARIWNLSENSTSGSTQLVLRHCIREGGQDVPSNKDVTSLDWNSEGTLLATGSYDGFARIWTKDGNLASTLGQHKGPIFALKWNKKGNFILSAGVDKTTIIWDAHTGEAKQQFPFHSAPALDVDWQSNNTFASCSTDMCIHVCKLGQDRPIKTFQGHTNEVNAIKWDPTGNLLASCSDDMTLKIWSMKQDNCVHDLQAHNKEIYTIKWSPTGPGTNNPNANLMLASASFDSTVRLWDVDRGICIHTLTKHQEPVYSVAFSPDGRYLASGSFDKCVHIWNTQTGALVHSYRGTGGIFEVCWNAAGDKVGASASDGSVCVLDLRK
UniProt Q5JTD0: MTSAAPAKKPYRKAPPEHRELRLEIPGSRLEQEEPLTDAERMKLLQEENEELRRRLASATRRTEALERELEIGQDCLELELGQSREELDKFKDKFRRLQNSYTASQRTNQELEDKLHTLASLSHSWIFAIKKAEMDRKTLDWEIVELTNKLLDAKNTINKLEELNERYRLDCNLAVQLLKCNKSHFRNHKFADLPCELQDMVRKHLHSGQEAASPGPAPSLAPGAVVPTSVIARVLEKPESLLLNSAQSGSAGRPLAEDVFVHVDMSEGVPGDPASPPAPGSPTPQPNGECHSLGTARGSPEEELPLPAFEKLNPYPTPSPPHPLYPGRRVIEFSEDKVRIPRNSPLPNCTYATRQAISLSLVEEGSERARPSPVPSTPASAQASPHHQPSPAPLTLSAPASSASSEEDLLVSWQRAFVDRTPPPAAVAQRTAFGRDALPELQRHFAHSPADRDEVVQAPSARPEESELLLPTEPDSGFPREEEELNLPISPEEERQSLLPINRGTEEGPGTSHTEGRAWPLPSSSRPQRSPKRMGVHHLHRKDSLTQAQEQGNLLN
UniProt Q9BSF4: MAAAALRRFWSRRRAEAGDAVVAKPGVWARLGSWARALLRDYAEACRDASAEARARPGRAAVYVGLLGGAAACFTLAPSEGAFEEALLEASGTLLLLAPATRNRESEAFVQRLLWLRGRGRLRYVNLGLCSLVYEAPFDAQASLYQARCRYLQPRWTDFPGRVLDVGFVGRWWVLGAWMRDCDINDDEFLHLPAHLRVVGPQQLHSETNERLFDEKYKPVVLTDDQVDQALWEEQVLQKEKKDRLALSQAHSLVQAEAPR
UniProt Q9H5Q4: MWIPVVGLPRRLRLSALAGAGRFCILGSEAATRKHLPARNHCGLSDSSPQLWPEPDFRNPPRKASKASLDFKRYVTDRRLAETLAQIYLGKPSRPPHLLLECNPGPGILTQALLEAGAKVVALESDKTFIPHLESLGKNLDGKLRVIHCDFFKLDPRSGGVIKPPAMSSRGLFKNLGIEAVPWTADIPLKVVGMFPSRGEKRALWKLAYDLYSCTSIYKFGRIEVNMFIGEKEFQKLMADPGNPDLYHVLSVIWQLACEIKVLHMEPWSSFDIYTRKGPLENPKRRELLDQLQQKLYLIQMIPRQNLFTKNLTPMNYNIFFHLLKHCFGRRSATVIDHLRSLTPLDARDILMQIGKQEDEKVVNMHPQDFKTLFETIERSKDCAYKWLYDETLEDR
UniProt Q92609: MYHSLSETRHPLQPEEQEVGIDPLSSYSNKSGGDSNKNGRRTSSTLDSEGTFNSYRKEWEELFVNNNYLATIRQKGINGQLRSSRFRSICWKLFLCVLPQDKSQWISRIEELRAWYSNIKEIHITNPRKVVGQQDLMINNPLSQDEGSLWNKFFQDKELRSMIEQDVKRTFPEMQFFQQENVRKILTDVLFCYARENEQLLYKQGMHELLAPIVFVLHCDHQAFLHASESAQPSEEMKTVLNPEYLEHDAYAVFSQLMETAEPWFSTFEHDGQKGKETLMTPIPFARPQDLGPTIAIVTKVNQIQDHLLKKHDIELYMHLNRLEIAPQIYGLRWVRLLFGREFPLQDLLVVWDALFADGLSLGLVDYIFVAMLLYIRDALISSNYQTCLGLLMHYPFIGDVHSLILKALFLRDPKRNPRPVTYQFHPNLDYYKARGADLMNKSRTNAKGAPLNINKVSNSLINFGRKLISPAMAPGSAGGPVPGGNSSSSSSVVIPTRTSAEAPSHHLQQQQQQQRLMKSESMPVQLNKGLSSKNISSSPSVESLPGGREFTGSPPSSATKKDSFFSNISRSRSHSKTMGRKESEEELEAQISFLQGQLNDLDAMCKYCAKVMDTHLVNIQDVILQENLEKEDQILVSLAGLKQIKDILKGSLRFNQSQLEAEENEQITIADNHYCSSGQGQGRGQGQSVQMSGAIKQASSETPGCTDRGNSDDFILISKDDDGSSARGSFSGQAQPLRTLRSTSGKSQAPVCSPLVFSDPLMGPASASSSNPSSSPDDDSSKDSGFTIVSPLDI
UniProt Q86W42: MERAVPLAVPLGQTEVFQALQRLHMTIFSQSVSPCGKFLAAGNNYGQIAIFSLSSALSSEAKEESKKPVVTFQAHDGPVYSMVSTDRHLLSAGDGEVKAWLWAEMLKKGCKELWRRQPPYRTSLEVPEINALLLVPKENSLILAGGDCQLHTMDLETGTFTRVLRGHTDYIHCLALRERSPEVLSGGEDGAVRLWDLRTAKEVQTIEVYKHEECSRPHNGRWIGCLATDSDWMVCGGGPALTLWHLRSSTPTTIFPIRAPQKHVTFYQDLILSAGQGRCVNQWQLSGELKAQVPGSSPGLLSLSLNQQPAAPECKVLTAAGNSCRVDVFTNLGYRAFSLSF
UniProt Q96CP7: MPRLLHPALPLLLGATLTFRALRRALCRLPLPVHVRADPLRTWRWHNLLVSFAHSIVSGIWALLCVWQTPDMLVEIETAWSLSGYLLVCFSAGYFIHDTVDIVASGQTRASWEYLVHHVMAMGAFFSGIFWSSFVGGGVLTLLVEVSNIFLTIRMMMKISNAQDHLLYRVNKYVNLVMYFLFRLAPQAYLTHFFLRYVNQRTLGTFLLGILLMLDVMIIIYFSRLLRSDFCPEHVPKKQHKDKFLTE
UniProt Q99081: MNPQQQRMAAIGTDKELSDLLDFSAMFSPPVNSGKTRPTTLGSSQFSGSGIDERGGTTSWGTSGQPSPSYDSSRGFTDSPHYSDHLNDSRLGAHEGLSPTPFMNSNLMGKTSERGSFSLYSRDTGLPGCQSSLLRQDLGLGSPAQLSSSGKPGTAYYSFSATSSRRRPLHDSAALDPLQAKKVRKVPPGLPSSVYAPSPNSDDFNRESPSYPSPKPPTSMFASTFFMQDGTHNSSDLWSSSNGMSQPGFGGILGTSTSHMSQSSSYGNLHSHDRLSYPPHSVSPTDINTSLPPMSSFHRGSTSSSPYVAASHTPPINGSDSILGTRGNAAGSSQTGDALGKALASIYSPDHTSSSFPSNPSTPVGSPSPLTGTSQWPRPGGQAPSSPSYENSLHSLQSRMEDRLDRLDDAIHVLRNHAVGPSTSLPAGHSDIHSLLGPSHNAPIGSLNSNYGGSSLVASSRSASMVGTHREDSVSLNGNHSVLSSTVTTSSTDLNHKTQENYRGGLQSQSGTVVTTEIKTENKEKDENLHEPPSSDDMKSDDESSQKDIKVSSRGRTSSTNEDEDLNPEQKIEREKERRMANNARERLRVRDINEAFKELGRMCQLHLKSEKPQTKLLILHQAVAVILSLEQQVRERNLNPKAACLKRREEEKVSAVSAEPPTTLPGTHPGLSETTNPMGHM

Assays:
Assay in all cases: log2 fold change, soluble protein after heating vs DMSO (PISA); higher = thermal stabilisation; K562 cells, 10 uM, 30 min; active = over 0.2 and 3.5 SD of the protein, either way, in both replicates (recomputed)
erlotinib = compound: C#Cc1cccc(Nc2ncnc3cc(OCCOC)c(OCCOC)cc23)c1 [erlotinib]
Summary of the method: (§1)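 K562 cells at 2×10^6 cells/mL were treated with 10 μM compound for 30 min. Aliquots were heated for 3 min across 48°C-58°C, pooled, and extracted in PBS with 0.5% NP-40 at 4°C; soluble protein was the supernatant after 21,000xg for 90 min. Soluble protein was quantified by TMTpro 16plex LC-MS/MS with channel sums equalised, and reported as log2 fold change in thermal stability against DMSO controls, with values from duplicates.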

[1] = compound: C/C(=N\NC(=O)C1=CC(=CC=C1)S(=O)(=O)N2CCOCC2)/C3=C(C=CC(=C3)Cl)O
Summary of the method: as §1

[2] = compound: C1=CC(=C(C=C1Cl)C2=NC3=NC=CN=C3C(=N2)NC4=CC=NC=C4)F
Summary of the method: as §1

[3] = compound: C1=CC(=CC=C1C2=NC3=C(N2)C=C(C=C3)C(=O)N)OC4=CC=C(C=C4)Cl
Summary of the method: as §1

[4] = compound: C1=CC2=C(C=CC(=C2)/C=C\3/C(=O)NC(=NCC4=CC=CS4)S3)N=C1
Summary of the method: as §1

[5] = compound: C1=CC2=NC=CN=C2C=C1/C=C/3\C(=O)NC(=O)S3
Summary of the method: as §1

[6] = compound: C1=CC=C(C=C1)C2=NC(=C(N2)C3=CC=NC=C3)C4=CC(=C(C=C4)Cl)O
Summary of the method: as §1

[7] = compound: C1=CC=C2C(=C1)C3=NNC4=CC=CC(=C43)C2=O
Summary of the method: as §1

[8] = compound: C1CCN(C1)C(=O)NC2=CC=CC(=C2)NC3=NC=C(C(=N3)NCCC4=CN=CN4)Br
Summary of the method: as §1

[9] = compound: C1CN(CCC1(CC2=CC=C(C=C2)Cl)N)C3=NC=NC4=C3C=CN4
Summary of the method: as §1

IRAK-1-4 Inhibitor I = compound: C1COCCN1CCN2C3=CC=CC=C3N=C2NC(=O)C4=CC(=CC=C4)[N+](=O)[O-] [IRAK-1-4 Inhibitor I]
Summary of the method: as §1

ibrutinib = compound: C=CC(=O)N1CCC[C@@H](n2nc(-c3ccc(Oc4ccccc4)cc3)c3c(N)ncnc32)C1 [ibrutinib]
Summary of the method: as §1

[10] = compound: CC(=O)c1cnc2ccc(-c3cc(Cl)c(O)c(Cl)c3)nc2c1N[C@H]1CC[C@H](CN(C)C)CC1
Summary of the method: as §1

ralimetinib = compound: CC(C)(C)Cn1c(N)nc2ccc(-c3[nH]c(C(C)(C)C)nc3-c3ccc(F)cc3)nc21 [ralimetinib]
Summary of the method: as §1

[11] = compound: CC(C)(O)CC(=O)NCCn1ccc2ncnc(Nc3ccc(Oc4cccc(C(F)(F)F)c4)c(Cl)c3)c21
Summary of the method: as §1

[12] = compound: CC(C)C1=C2N=C(C=C(N2N=C1)NCC3=CC=CC=C3)NCCCCCCN
Summary of the method: as §1

[13] = compound: CC(C)C[C@@H](C=O)NC(=O)[C@H](CC(C)C)NC(=O)[C@H](CC(C)C)NC(=O)OCc1ccccc1
Summary of the method: as §1

pinometostat = compound: CC(C)N(C[C@H]1O[C@@H](n2cnc3c(N)ncnc32)[C@H](O)[C@@H]1O)[C@H]1C[C@@H](CCc2nc3cc(C(C)(C)C)ccc3[nH]2)C1 [pinometostat]
Summary of the method: as §1

[14] = compound: CC1=C(C(CC(=O)N1)C2=CC=C(C=C2)C(F)(F)F)C(=O)NC3=C(C=C4C(=C3)C=NN4)F
Summary of the method: as §1

[15] = compound: CC1=C(C2=C(C=C1)C(=O)C3=CC=CC=C3N2CCCN)C
Summary of the method: as §1

Measured: log2 fold change

TBL1XR1 (UniProt Q9BZK7)
inactive: erlotinib -0.062 | [1] 0.049 | [2] 0.181 | [3] 0.043 | [4] -0.001 | [5] 0.053 | [6] 0.019 | [7] -0.031 | [8] 0.009 | [9] 0.026 | IRAK-1-4 Inhibitor I 0.015 | ibrutinib -0.017 | [10] -0.043 | ralimetinib -0.051 | [11] -0.002 | [12] 0.058 | [13] -0.005 | pinometostat -0.045 | [14] -0.001 | [15] 0.015

TJAP1 (UniProt Q5JTD0)
inactive: erlotinib -0.028 | [1] 0.002 | [2] -0.017 | [3] 0.001 | [4] -0.073 | [5] 0.022 | [6] 0.015 | [7] 0.036 | [8] 0.012 | [9] -0.064 | IRAK-1-4 Inhibitor I -0.011 | ibrutinib 0.028 | [10] 0.176 | ralimetinib -0.084 | [11] -0.019 | [12] 0.01 | [13] 0.014 | pinometostat -0.012 | [14] 0.016 | [15] -0.164

TIMM29 (UniProt Q9BSF4)
inactive: erlotinib 0.028 | [1] 0.042 | [2] 0.049 | [3] -0.025 | [4] 0.064 | [5] 0.018 | [6] -0.035 | [7] -0.024 | [8] 0.037 | [9] 0.011 | IRAK-1-4 Inhibitor I -0.202 | ibrutinib 0.024 | [10] -0.014 | ralimetinib -0.101 | [11] 0.008 | [12] 0.071 | [13] -0.031 | [15] -0.052
active: pinometostat 0.444

TFB2M (UniProt Q9H5Q4)
inactive: erlotinib 0.007 | [1] 0.094 | [2] 0.037 | [3] -0.043 | [4] 0.016 | [5] 0.019 | [6] -0.022 | [7] -0.019 | [8] 0.002 | [9] 0.007 | IRAK-1-4 Inhibitor I 0.037 | ibrutinib -0.029 | [10] -0.013 | ralimetinib -0.085 | [11] -0.136 | [12] -0.08 | [13] 0.02 | pinometostat 0.012 | [15] 0.005

TBC1D5 isoform 2 (UniProt Q92609)
active: [12] -0.325
inactive: erlotinib 0.019 | [1] 0.111 | [2] -0.03 | [3] -0.041 | [4] 0.044 | [5] 0.032 | [6] -0.049 | [7] 0.027 | [8] -0.003 | [9] -0.078 | IRAK-1-4 Inhibitor I -0.022 | ibrutinib -0.01 | [10] -0.009 | ralimetinib 0.023 | [11] -0.179 | [13] 0.076 | pinometostat 0.003 | [15] 0.02

THOC6 (UniProt Q86W42)
inactive: erlotinib -0.002 | [1] -0.001 | [2] 0.024 | [3] -0.011 | [4] -0.007 | [5] -0.013 | [6] -0.007 | [7] 0.03 | [8] -0.015 | [9] 0.009 | IRAK-1-4 Inhibitor I 0.016 | ibrutinib 0.007 | [10] -0.001 | ralimetinib -0.02 | [11] -0.004 | [12] 0.051 | [13] 0 | pinometostat -0.02 | [14] -0.02 | [15] 0.071

TLCD1 (UniProt Q96CP7)
inactive: erlotinib 0.026 | [1] 0.186 | [2] -0.115 | [3] 0.326 | [4] 0.069 | [5] -0.054 | [6] 0.133 | [7] 0.028 | [8] 0.017 | [9] 0.078 | IRAK-1-4 Inhibitor I 0.043 | ibrutinib 0.048 | [10] 0.115 | ralimetinib 0.065 | [11] -0.238 | [12] 0.015 | [13] -0.101 | pinometostat -0.041 | [14] -0.043 | [15] 0.193

TCF12 isoform 3 (UniProt Q99081)
inactive: erlotinib 0.063 | [1] 0.075 | [2] -0.027 | [3] 0.036 | [4] -0.127 | [5] 0.011 | [6] 0.123 | [7] 0.042 | [8] -0.036 | [9] -0.013 | IRAK-1-4 Inhibitor I 0.001 | ibrutinib -0.007 | [10] -0.123 | ralimetinib -0.012 | [11] -0.114 | [12] -0.125 | [13] -0.022 | pinometostat -0.138 | [14] 0.051 | [15] -0.023
